Measurements reported in PubChem BioAssay AID1224830 (NIAID, 2016)
Screen: 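Genes whose knock-down alters the TNF-alpha reporter response to LPS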 (primary screen). System: human THP-1 monocytic leukaemia cells, TNF dual-luciferase reporter clone, PMA-differentiated to macrophage-like cells. Knock-down reagent: siRNA pool against human genes, 50 nM. Time to read-out: LPS for 4 h, given about 3 days after siRNA transfection. Conditions: bacterial LPS (TLR4 ligand), 10 ng/ml. Detection: 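Ratio of firefly to renilla light, scaled to the plate median and expressed as a robust z-score per replicate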. Scale: TNF reporter robust z-score: higher = stronger TNF reporter response to LPS. Rule for the call: 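a well is active when its z-score exceeds 2.8 or falls below -1.5; control wells carry no call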.
This is one part, drawn at random, of about 18,000 reagents tested. About 2,900 of all reagents (16%) were called active. 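Calls are made per well; low scores hint the gene aids the LPS response, high scores that it dampens it.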 Repeated entries: four replicate wells of each siRNA pool. No sequences are given here.

| target gene | TNF reporter robust z-score | Outcome |
| --- | --- | --- |
| PTTG2 | -0.15 | inactive |
| PTTG2 | 0.51 | inactive |
| PTTG2 | -1.45 | inactive |
| PTTG2 | -1.75 | active |
| KCNMB2 | 0.38 | inactive |
| KCNMB2 | 0.09 | inactive |
| KCNMB2 | -0.69 | inactive |
| KCNMB2 | -0.76 | inactive |
| FNDC3B | 0.77 | inactive |
| FNDC3B | 0.33 | inactive |
| FNDC3B | 0.14 | inactive |
| FNDC3B | 0.28 | inactive |
| PRKACA | 2 | inactive |
| PRKACA | 0.91 | inactive |
| PRKACA | 0.78 | inactive |
| PRKACA | 0.05 | inactive |
| SMG5 | 1.55 | inactive |
| SMG5 | 2.99 | active |
| SMG5 | 2.14 | inactive |
| SMG5 | 1.65 | inactive |
| LYPD4 | -0.73 | inactive |
| LYPD4 | 0.58 | inactive |
| LYPD4 | 0.78 | inactive |
| LYPD4 | 1.84 | inactive |
| DCUN1D4 | -0.1 | inactive |
| DCUN1D4 | 0.54 | inactive |
| DCUN1D4 | -0.95 | inactive |
| DCUN1D4 | -0.29 | inactive |
| TMED4 | -1.36 | inactive |
| TMED4 | -1.78 | active |
| TMED4 | -1.68 | active |
| TMED4 | -1.79 | active |
| HSD3B7 | -0.54 | inactive |
| HSD3B7 | 0.11 | inactive |
| HSD3B7 | -0.89 | inactive |
| HSD3B7 | -0.8 | inactive |
| OR8H3 | 0.1 | inactive |
| OR8H3 | 0.25 | inactive |
| OR8H3 | 0.49 | inactive |
| OR8H3 | 1.66 | inactive |
| ATP2B3 | -1.71 | active |
| ATP2B3 | -0.73 | inactive |
| ATP2B3 | -1.08 | inactive |
| ATP2B3 | -0.55 | inactive |
| CEP164 | 0.08 | inactive |
| CEP164 | 0.06 | inactive |
| CEP164 | 0.63 | inactive |
| CEP164 | 2.18 | inactive |
| RAB23 | -0.4 | inactive |
| RAB23 | -0.14 | inactive |
| RAB23 | 0.21 | inactive |
| RAB23 | -0.26 | inactive |

Targets listed so far whose gene name begins with D or d (4):
| target gene | TNF reporter robust z-score | Outcome |
| --- | --- | --- |
| DCUN1D4 | -0.1 | inactive |
| DCUN1D4 | 0.54 | inactive |
| DCUN1D4 | -0.95 | inactive |
| DCUN1D4 | -0.29 | inactive |

Additional records follow.
| target gene | TNF reporter robust z-score | Outcome |
| --- | --- | --- |
| DNAJC11 | -0.7 | inactive |
| DNAJC11 | -0.5 | inactive |
| DNAJC11 | -1.08 | inactive |
| DNAJC11 | -0.23 | inactive |
| POF1B | -0.78 | inactive |
| POF1B | -0.75 | inactive |
| POF1B | -1.04 | inactive |
| POF1B | -0.99 | inactive |
| BMX | -1.38 | inactive |
| BMX | 0.23 | inactive |
| BMX | -0.91 | inactive |
| BMX | -0.87 | inactive |
| GABARAPL1 | 0.74 | inactive |
| GABARAPL1 | 1.92 | inactive |
| GABARAPL1 | 4.03 | active |
| GABARAPL1 | 1.14 | inactive |
| SPMIP5 | 1.58 | inactive |
| SPMIP5 | 0.35 | inactive |
| SPMIP5 | -0.88 | inactive |
| SPMIP5 | 1.34 | inactive |
| ORMDL3 | 0.24 | inactive |
| ORMDL3 | -0.89 | inactive |
| ORMDL3 | -0.59 | inactive |
| ORMDL3 | -0.17 | inactive |
| PIPOX | 0.85 | inactive |
| PIPOX | 2.72 | inactive |
| PIPOX | 1.2 | inactive |
| PIPOX | 1.45 | inactive |
| TELO2 | 0.43 | inactive |
| TELO2 | -0.15 | inactive |
| TELO2 | -0.42 | inactive |
| TELO2 | 0.97 | inactive |
| KRTAP8-1 | 0.69 | inactive |
| KRTAP8-1 | 1.06 | inactive |
| KRTAP8-1 | -0.85 | inactive |
| KRTAP8-1 | -0.79 | inactive |
| OR7G2 | -0.64 | inactive |
| OR7G2 | -1.08 | inactive |
| OR7G2 | 0.05 | inactive |
| OR7G2 | -0.42 | inactive |
| ZNF155 | 1.37 | inactive |
| ZNF155 | 2.36 | inactive |
| ZNF155 | 2.59 | inactive |
| ZNF155 | 2.63 | inactive |
| KCTD1 | 0.69 | inactive |
| KCTD1 | 1.84 | inactive |
| KCTD1 | 2.51 | inactive |
| KCTD1 | 2.9 | active |
| DOK7 | -0.12 | inactive |
| DOK7 | -0.38 | inactive |
| DOK7 | 1.04 | inactive |
| DOK7 | -0.39 | inactive |
| GPNMB | -0.8 | inactive |
| GPNMB | 0.16 | inactive |
| GPNMB | -0.49 | inactive |
| GPNMB | 0.08 | inactive |
| SOX14 | -0.01 | inactive |
| SOX14 | -0.35 | inactive |
| SOX14 | -1.16 | inactive |
| SOX14 | -0.59 | inactive |
| MALT1 | -0.33 | inactive |
| MALT1 | -0.05 | inactive |
| MALT1 | 0.85 | inactive |
| MALT1 | 2.33 | inactive |
| NLRP7 | -1.17 | inactive |
| NLRP7 | -0.73 | inactive |
| NLRP7 | -0.69 | inactive |
| NLRP7 | -0.45 | inactive |
| ZBED1 | -0.14 | inactive |
| ZBED1 | -1.27 | inactive |
| ZBED1 | -1.11 | inactive |
| ZBED1 | -0.25 | inactive |
| CCNG1 | -0.52 | inactive |
| CCNG1 | 0.14 | inactive |
| CCNG1 | 0.32 | inactive |
| CCNG1 | 0.72 | inactive |
| DCAF1 | 1.37 | inactive |
| DCAF1 | 0.97 | inactive |
| DCAF1 | 6.18 | active |
| DCAF1 | 4.14 | active |
| CD1C | 1.21 | inactive |
| CD1C | -0.45 | inactive |
| CD1C | -0.26 | inactive |
| CD1C | -0.59 | inactive |
| BAG6 | 0.03 | inactive |
| BAG6 | 0.22 | inactive |
| BAG6 | 0.3 | inactive |
| BAG6 | 0.42 | inactive |
